{
  "source": "patent EP0463690B1",
  "about": "“Antagonists of immunosuppressive macrolides” (MERCK & CO. INC., priority 1990, dated 1992)",
  "origin": "cited, not measured here",
  "system": "in vitro immune systems",
  "details": "relative to cyclosporin; reported in J. Antibiotics 1987, 40, 1256",
  "note": "At least one structure is not confirmed: it was looked up by name or label, or the drawing left a doubt.",
  "data": [
    {"smiles": "C=CC[C@@H]1/C=C(\\C)C[C@H](C)C[C@H](OC)[C@H]2O[C@@](O)(C(=O)C(=O)N3CCCC[C@H]3C(=O)O[C@H](/C(C)=C/[C@@H]3CC[C@@H](O)[C@H](OC)C3)[C@H](C)[C@@H](O)CC1=O)[C@H](C)C[C@@H]2OC", "note": "[FK-506, 17-allyl-1,14-dihydroxy-12-[2'-(4''-hydroxy-3''-methoxycyclohexyl)-1'-methylvinyl]-23,25-dimethoxy-13,19,21,27-tetramethyl-11,28-dioxa-4-azatricyclo[22.3.1.0⁴ʼ⁹]octacos-18-ene-2,3,10,16-tetraone]", "values": [
      {"measurement": "times more effective than cyclosporin in the supression of in vitro immune systems", "result": 100, "unit": "times"}
    ]}
  ]
}
